Among the data in PubChem BioAssay AID2685 (National Center for Advancing Translational Sciences (NCATS), 2010) are cell number change and AC50 values, retold here.

The nature of the test: qHTS Assay for Lipid Storage Modulators in Drosophila S3 Cells.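 On cell number change: cells counted by Cell Tracker Red CMTPX staining in the red channel.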 The conditions noted are these: BODIPY lipid droplet fluorescence, 18-24 h; for cell number change: measured here: cell count max response, cells fed with added oleic acid. The method, boiled down: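 Drosophila S3 cells got compounds at several concentrations plus oleic acid (400 uM solution). Laser-scanning cytometry with 488 nm excitation read lipid droplets at 500-530 nm and cells at 575-640 nm. Percent activity was relative to 20 uM Triacsin C.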

Setting [1] is: measured here: lipid fluorescence (Fed channel) AC50, cells fed with added oleic acid.
The mark [2] stands for this setting: measured here: cell number channel AC50, cells fed with added oleic acid.

Structures are written as SMILES. The list shows a part of the results. Shown are side measurements of this screen, not its main read-out; they come without a call. The list favours compounds with an active or inconclusive main result. The note in brackets gives the kind of curve behind each potency; many fits are weak.

The term AC50 denotes the concentration at which the activity in the assay is half-maximal. Low values mean activity at low concentration, high ones activity only at high concentration. With `O=C(NCCc1ccc(Cl)cc1)c1ncn[nH]1`, the cell number change was -9.12%. Moreover, the AC50 under setting [1] is 29.1 µM [falling, single point].
Turning to `Cc1ccc(Cn2ncn3c(cc4ccccc43)c2=O)cc1`, the cell number change was -30.2%. In addition, under setting [2], the AC50 is 32.6 µM [falling, single point].
Regarding `CCn1c(SCC(=O)Nc2cc(C(C)(C)C)nn2-c2ccccc2)nnc1-c1cccs1`, the cell number change amounted to 45.3%. Besides, the AC50 under setting [2] was 1.3 µM [rising, full curve]. For the same compound, under setting [1], the AC50 was 0.517 µM [rising, full curve].
With `CCOC(=O)/C(=C\C=C1/Sc2ccccc2N1CC)C(C)=O`, the cell number change was -38.2%. Also, under setting [2], the AC50 is 18.4 µM [falling, single point]. Besides, the AC50 under setting [1] was 18.4 µM [falling, single point].
For `Cc1nc(N2CCN(C(=O)c3ccco3)CC2)[nH]c(=O)c1C`, the cell number change is 44.6%.
Still for that read-out and setting: the value for `CN1CCc2c(sc3c2C(=O)NC(c2ccco2)N3)C1` (centres undefined) was 1.55%.
As for `CC1CC(C)CN(C(=O)c2cccc3c2-c2ccccc2C3=O)C1` (centres undefined), the cell number change was 0.292%. The AC50 under setting [1] was 18.4 µM [rising, single point].
Consider `COc1ccc(OC)c(CN2CCN(c3ccc(S(=O)(=O)N4CCCC4)cn3)CC2)c1`, for which the cell number change is -16.6%. In addition, under setting [1], the AC50 was 7.31 µM [falling, partial curve, poor fit].
For `Cc1cc(C)cc(N=c2c([N+](=O)[O-])nn(-c3cccc(Cl)c3)n2O)c1`, the cell number change was -66.8%. For the same compound, the AC50 under setting [2] was 11.6 µM [falling, partial curve]. For the same compound, the AC50 under setting [1] was 8.2 µM [falling, partial curve].
Regarding `C=CCn1c(N2CCCCCC2)nc2c1c(=O)[nH]c(=O)n2C`, the cell number change came to 80.3%.
For the compound `O=C1CSC(c2cn(-c3ccccc3)nc2-c2cc3ccccc3oc2=O)N1Cc1ccccc1` (centres undefined), the AC50 under setting [2] was 2.06 µM [rising, partial curve] and the AC50 under setting [1] is 9.2 µM [rising, partial curve].
As to `O=C(Nc1ccc(Cl)cc1C(=O)NCC1CCCO1)c1ccco1` (centres undefined), the cell number change turned out to be 0.128%.
As to `COc1ccc(C(=O)Nc2ccc(NC(=O)c3ccco3)cc2)cc1`, the cell number change amounted to 44.6%. In addition, under setting [2], the AC50 was 25.9 µM [rising, single point].
On to `CCOC(=O)C1CCN(C(=O)COc2ccc(Br)cc2Br)CC1`, for which the cell number change is -46.1%. In addition, under setting [2], the AC50 is 3.66 µM [falling, full curve]. Further, under setting [1], the AC50 was 4.11 µM [falling, full curve].
As to `Cc1cc(NC(=O)CSc2nc3cc(Cl)ccc3o2)no1`, the cell number change came to 47.4%. Further, the AC50 under setting [2] was 25.9 µM [rising, single point].
As for `Cc1cccc(OCc2nnc(-c3ccc(F)cc3)o2)c1`, the cell number change stood at 3.89%. Under setting [1], the concentration at half-maximal activity (AC50) was 3.26 µM [rising, single point].
As for `Cc1cccc(C(=O)Nc2ccc(N3CCN(C(=O)c4ccco4)CC3)cc2)c1`, the cell number change was found to be 2.7%. Under setting [1], the AC50 was 11.6 µM [falling, single point].
With `Cc1cccc(NC(=O)N2CCC(NC(=O)c3ccco3)CC2)c1`, the cell number change is -45.3%. The AC50 under setting [2] is 18.4 µM [falling, single point]. In addition, the AC50 under setting [1] is 0.82 µM [falling, full curve, poor fit].
In the case of `CCN(CC)c1ccc(/C=C(\C#N)c2nc(-c3cccs3)c(NC(C)=O)s2)cc1`, the cell number change is -101%. For the same compound, the AC50 under setting [2] is 5.17 µM [falling, full curve]. In addition, the AC50 under setting [1] was 4.61 µM [falling, full curve].
Consider `CC(C)(C)C(=O)OCC1OC(n2cnc(C(N)=O)n2)C(O)C1O` (centres undefined), for which the cell number change is -99.1%. Besides, under setting [2], the AC50 was 18.4 µM [falling, partial curve]. Moreover, under setting [1], the AC50 was 20.6 µM [falling, partial curve].
Consider `O=S1(=O)CCN2C=C(Br)C=C(Br)C2=N1`, for which the cell number change was 1.47%. Besides, under setting [1], the AC50 was 1.46 µM [falling, partial curve, poor fit].
For the compound `COc1ccc(C(C)(C)C)cc1NC(=O)CCCN1C(=O)CN(C)C1=O`, the cell number change is 24.5%.
For `CCCCC(=O)Nc1ccc(C(=O)Nc2ccc(OC)cc2[N+](=O)[O-])cc1`, the cell number change was determined as 0.825%. Further, the concentration at half-maximal activity (AC50) under setting [1] is 16.4 µM [falling, partial curve].
As for `CCOc1ccc(C(C)=O)cc1CC(C(N)=O)C(N)=O`, the cell number change was -65.5%. Besides, the AC50 under setting [2] is 23.1 µM [falling, single point]. For the same compound, under setting [1], the AC50 was 18.4 µM [falling, single point].
As for `O=C(Nc1cccc(Cl)c1)c1ccc(-n2cncn2)c([N+](=O)[O-])c1`, the AC50 is 0.411 µM [rising, full curve, poor fit] under setting [2] and 0.731 µM [rising, full curve] under setting [1].
As to `O=c1c2cccc3c(N4CCOCC4)ccc(c32)c2nc3ccccc3n12`, the cell number change is -13.4%. For the same compound, under setting [1], the AC50 is 29.1 µM [falling, single point].
`O=C(O)c1ccccc1C(=O)NNC(=O)C(c1ccccc1)c1ccccc1`: the cell number change is 17.6%. Also, the AC50 under setting [1] is 14.6 µM [rising, partial curve].
Consider `CCn1cc(C(=O)NCCc2ccc(OC)cc2)c(=O)c2ccc(C)nc21`, for which the cell number change was 11.3%. In addition, under setting [1], the AC50 was 13 µM [rising, partial curve].
`Cn1c(=O)c2c(nc(SCC(=O)NCc3ccc4c(c3)OCO4)n2Cc2ccccc2)n(C)c1=O`: the AC50 under setting [1] is 0.731 µM [rising, single point].
For `COc1ccc(OC)c(C2=NOC(C(=O)Nc3ccc4c(c3)OCCO4)C2)c1` (centres undefined), the cell number change amounted to 7.56%.
In the case of `O=C1CC(c2ccccc2)c2cccc(F)c21` (centres undefined), the cell number change amounted to 46.8%. Moreover, the AC50 under setting [2] is 8.2 µM [rising, partial curve, poor fit]. Moreover, the AC50 under setting [1] is 6.51 µM [rising, full curve, poor fit].
`CC1CCN(CCNC(=O)c2ccc3c(=O)n(Cc4ccc(Cl)cc4)c(=S)[nH]c3c2)CC1`: the cell number change was -2.59%. Moreover, the AC50 under setting [1] is 6.51 µM [rising, single point].
Take `O=C(Nc1ccccc1C(=O)NCC1CCCO1)c1ccc(Cl)cc1Cl` (centres undefined): the cell number change is -31.4%. Moreover, the concentration at half-maximal activity (AC50) under setting [2] is 16.4 µM [falling, partial curve, poor fit]. The AC50 under setting [1] was 29.1 µM [falling, single point].
On to `CCOc1ccc(C(=O)Nc2ccc(S(=O)(=O)NCC3CCCO3)cc2)cc1OCC` (centres undefined), for which the cell number change amounted to 1.74%. In addition, under setting [1], the AC50 is 18.4 µM [falling, single point].
On to `Cc1ccccc1N1CCN(C2CCCN(C(=O)CCn3cnnn3)C2)CC1` (centres undefined), for which the cell number change came to 32.4%. Under setting [2], the AC50 is 0.0291 µM [rising, full curve, poor fit].
As to `CN(C)/C=N/c1nc2nccc(-c3cccs3)n2n1`, the cell number change is -23.7%.
With `Cc1cccc(NC(=O)/C(C#N)=C/c2ccc(F)cc2)n1`, the cell number change was -14.9%. For the same compound, the half-maximal activity concentration (AC50) under setting [1] was 29.1 µM [falling, single point].
Turning to `NNC(=O)Cn1cnc2ccccc21`, the cell number change was 1.23%. Further, the AC50 under setting [2] is 0.517 µM [falling, single point].
As to `COc1ccc(S(=O)(=O)N2CCC(C(=O)N[C@@H](C)C(=O)N3CCCCCC3)CC2)cc1`, the cell number change came to 20.3%. Further, the AC50 under setting [1] was 29.1 µM [rising, single point].
In the case of `CCCCNC(=O)C(CC)Sc1nc2sc(C(=O)OC)c(C)c2c(=O)n1N` (centres undefined), the cell number change is -4.6%. Besides, the AC50 under setting [1] was 32.6 µM [rising, single point].
On to `COC(=O)c1ccc(/C=C2/SC(=S)N(CCC(=O)N3CCOCC3)C2=O)cc1`, for which the cell number change was found to be 15.4%.
On to `COc1ccccc1NC(=O)/C=C/C(N)=O`, for which the cell number change was -90%. For the same compound, the concentration at half-maximal activity (AC50) under setting [2] is 18.4 µM [falling, single point]. Further, the AC50 under setting [1] was 16.4 µM [falling, partial curve].
Regarding `CCOC(=O)/C=c1\s/c(=C\c2ccc(C)cc2)c(=O)n1CC(=O)NCc1ccco1`, the AC50 under setting [1] is 23.1 µM [falling, single point].
Take `CCOc1ccc(NS(=O)(=O)c2ccc(OCC(=O)NCCCOC)cc2)cc1`: the concentration at half-maximal activity (AC50) under setting [2] was 2.59 µM [rising, single point].
For `COc1ccc(C2CC(c3ccccc3)Nc3nc(N)nn32)cc1` (centres undefined), the cell number change was -12.5%.
For `Cc1ccc2[nH]c3c(=O)n(Cc4ccco4)cnc3c2c1`, the cell number change was 23.9%. Also, the AC50 under setting [1] is 29.1 µM [rising, single point].
`Cc1ccc2nc(Nc3nc(-c4ccccc4)cc(=O)[nH]3)nc(C)c2c1`: the cell number change is -30.2%. For the same compound, the AC50 under setting [2] was 2.31 µM [falling, full curve, poor fit]. Further, under setting [1], the AC50 was 3.66 µM [falling, full curve, poor fit].
For `CC(OC(=O)CC1CC2CCC1C2)C(=O)Nc1ccc(N2CCOCC2)cc1` (centres undefined), the cell number change is -15.9%. Moreover, the AC50 under setting [1] is 0.00651 µM [falling, full curve, poor fit].
Take `COc1ccc(C(=O)N(C)Cc2cnn(Cc3ccccc3)c2)cc1S(=O)(=O)N1CCOCC1`: the cell number change turned out to be 32.7%. Under setting [2], the AC50 is 23.1 µM [rising, single point]. Also, the half-maximal activity concentration (AC50) under setting [1] is 25.9 µM [rising, partial curve, poor fit].
With `COc1cccc(CNC(=O)C(c2ccc(Cl)cc2)C(C)C)c1` (centres undefined), the cell number change is -6.11%. Further, the AC50 under setting [1] is 4.11 µM [falling, full curve, poor fit].
Consider `CC1CCCC(NC(=O)CN2CCN(Cc3ccc(Cl)cc3)C2=O)C1C` (centres undefined), for which the cell number change was -17.9%. Further, under setting [1], the AC50 is 0.00461 µM [falling, full curve, poor fit].
With `O=C(Nc1ccc(OC(F)F)c(Cl)c1)c1ccccn1`, the cell number change was 78.2%. Further, the AC50 under setting [2] is 16.4 µM [rising, single point]. In addition, the half-maximal activity concentration (AC50) under setting [1] was 23.1 µM [rising, single point].
On to `COc1ccccc1NS(=O)(=O)c1cccc(C(=O)NNC(=O)c2ccc(O)c(Cl)c2)c1`, for which the cell number change was found to be 8.04%. Besides, the half-maximal activity concentration (AC50) under setting [1] was 0.0058 µM [rising, full curve, poor fit].
In the case of `Nc1c(Cl)ncnc1N/N=C/c1ccccn1`, the cell number change amounted to 48.1%. The half-maximal activity concentration (AC50) under setting [2] is 0.82 µM [rising, full curve, poor fit]. Under setting [1], the AC50 was 23.1 µM [falling, partial curve].
Consider `Cc1cc(NC(=O)COC(=O)c2nccnc2N)n(-c2ccccc2)n1`, for which the cell number change turned out to be 33.4%. Also, under setting [2], the concentration at half-maximal activity (AC50) is 14.6 µM [rising, single point]. Also, under setting [1], the AC50 is 14.6 µM [rising, partial curve].
As to `O=C1N/C(=N/N=C/c2ccccc2)SC1(c1ccccc1)c1ccccc1`, the cell number change was -23%. Also, under setting [1], the AC50 was 11.6 µM [falling, partial curve].
For `CN(C)S(=O)(=O)c1cccc(NC(=O)c2ccc(COc3ccccc3)cc2)c1`, the cell number change was -42.6%. In addition, the AC50 under setting [2] was 14.6 µM [falling, partial curve]. For the same compound, the AC50 under setting [1] was 13 µM [falling, partial curve].
